No constants are given. Whether binding was seen depends on the method and setting. Binding seen in cells or lysates may run through a third protein. Some results given as binding are weak or reduced against the parent protein; the word gives no strength.
Legend:
[1] = biological target: MYL3 (myosin light chain family member) (bovine (endogenous in bovine MuSCs)) (UniProt P85100); test: co-IP; lysates of confluent bovine MuSCs incubated with MYH10, MYL3, PI3K or IgG antibodies overnight at 4 °C, captured on protein A/G magnetic beads, three washes, analysed by western blot
[2] = biological target: MYH10 (non‐muscle myosin IIB) (bovine (endogenous in bovine MuSCs)) (UniProt Q27991); test: as above

Amino acid sequences for entries named in this document (tags omitted).
UniProt P85100: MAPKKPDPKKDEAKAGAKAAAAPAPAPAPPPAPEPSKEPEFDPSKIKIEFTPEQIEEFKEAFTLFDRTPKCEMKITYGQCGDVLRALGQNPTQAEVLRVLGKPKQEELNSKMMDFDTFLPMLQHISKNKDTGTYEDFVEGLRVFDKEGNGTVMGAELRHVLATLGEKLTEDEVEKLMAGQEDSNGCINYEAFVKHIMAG
UniProt Q27991: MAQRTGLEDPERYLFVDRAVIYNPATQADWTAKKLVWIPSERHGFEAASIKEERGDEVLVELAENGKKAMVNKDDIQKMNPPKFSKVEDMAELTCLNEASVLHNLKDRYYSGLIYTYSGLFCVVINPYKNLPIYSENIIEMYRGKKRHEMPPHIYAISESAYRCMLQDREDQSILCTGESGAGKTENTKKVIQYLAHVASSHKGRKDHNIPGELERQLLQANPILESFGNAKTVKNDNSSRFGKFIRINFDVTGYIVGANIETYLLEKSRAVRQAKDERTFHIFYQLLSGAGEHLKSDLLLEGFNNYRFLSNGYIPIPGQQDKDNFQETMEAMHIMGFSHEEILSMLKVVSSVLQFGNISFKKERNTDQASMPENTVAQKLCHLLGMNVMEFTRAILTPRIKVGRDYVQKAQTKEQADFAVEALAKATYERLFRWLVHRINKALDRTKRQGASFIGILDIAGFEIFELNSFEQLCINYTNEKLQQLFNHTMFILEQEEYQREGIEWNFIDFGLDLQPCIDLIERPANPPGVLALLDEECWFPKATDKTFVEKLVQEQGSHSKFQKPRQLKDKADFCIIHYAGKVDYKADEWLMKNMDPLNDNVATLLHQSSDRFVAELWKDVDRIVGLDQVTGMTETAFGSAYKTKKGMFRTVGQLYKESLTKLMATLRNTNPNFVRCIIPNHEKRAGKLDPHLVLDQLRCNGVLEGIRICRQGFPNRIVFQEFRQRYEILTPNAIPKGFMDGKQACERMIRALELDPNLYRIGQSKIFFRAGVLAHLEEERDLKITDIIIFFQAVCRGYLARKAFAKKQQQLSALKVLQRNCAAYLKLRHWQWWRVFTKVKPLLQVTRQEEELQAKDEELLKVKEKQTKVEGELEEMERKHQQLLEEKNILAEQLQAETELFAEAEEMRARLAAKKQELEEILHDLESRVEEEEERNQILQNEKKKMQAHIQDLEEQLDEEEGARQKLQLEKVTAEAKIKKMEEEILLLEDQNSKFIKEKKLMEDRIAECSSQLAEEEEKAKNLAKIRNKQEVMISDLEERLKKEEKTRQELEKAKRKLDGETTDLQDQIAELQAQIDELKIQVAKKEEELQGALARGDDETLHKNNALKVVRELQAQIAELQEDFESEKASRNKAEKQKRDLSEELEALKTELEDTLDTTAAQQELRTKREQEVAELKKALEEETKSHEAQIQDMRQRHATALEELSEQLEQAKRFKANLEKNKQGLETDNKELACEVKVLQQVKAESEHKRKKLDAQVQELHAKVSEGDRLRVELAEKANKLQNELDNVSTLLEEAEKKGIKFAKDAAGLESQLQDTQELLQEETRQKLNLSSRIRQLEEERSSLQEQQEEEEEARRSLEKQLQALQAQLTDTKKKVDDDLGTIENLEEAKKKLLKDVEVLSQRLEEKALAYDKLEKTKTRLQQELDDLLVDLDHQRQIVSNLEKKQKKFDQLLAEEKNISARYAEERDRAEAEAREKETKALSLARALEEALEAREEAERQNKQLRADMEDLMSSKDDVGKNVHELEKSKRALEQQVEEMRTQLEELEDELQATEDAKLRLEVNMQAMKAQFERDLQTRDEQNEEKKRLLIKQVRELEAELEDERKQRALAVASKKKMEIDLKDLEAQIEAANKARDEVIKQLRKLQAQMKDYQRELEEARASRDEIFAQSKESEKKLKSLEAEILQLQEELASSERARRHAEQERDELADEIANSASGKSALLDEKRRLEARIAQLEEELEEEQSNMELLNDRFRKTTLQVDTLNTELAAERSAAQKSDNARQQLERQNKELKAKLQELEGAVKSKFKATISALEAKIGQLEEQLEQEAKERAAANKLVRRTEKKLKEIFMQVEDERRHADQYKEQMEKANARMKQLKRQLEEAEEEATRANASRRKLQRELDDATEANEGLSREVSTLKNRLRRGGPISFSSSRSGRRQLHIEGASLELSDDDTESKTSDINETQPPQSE

Substance: MYH10 (non‐muscle myosin IIB) (from UniProt Q27991 1-1976)
- binding [1]: binds

Substance: MYL3 (myosin light chain family member) (from UniProt P85100 1-199)
- binding [2]: binds

— publication PMC12915160
